Measurements reported in PubChem BioAssay AID686943 (Drosophila RNAi Screening Center, 2013)
In all, the deposit lists about 23,000 reagents; below is an unselected part of those that have a named target and a result. 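Extra replicates exist only for a retested subset of genes; insulin dose and duration not given; both raised and lowered dpERK matter.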 Not all columns of the deposit are shown. Not given: the amount of reagent, the time to read-out.

Assay: 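Search across the genome for regulators of signalling from receptor tyrosine kinase to ERK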 (primary screen)
Cell system: Drosophila S2R+ haemocyte-like cells expressing YFP-tagged ERK (Rolled)
Reagent: long dsRNA against Drosophila genes
Conditions: insulin stimulation versus unstimulated cells; dose and duration not given
Measurement: 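Antibody staining for doubly phosphorylated ERK divided by ERK-YFP signal, as plate z-scores, in insulin-treated and untreated cells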
Direction: replicate 1, z-score of dpERK with insulin: higher = more active ERK per ERK-YFP after insulin

Cyp6a17 (GeneID 45556) [DRSC07378] scored replicate 1, z-score of dpERK with insulin 0.91.
esc (GeneID 34595) [DRSC03529] scored replicate 1, z-score of dpERK with insulin -0.35.
Nil (GeneID 43185) [DRSC15953] gave replicate 1, z-score of dpERK with insulin 0.6.
CG3630 (GeneID 31189) [DRSC18499] gave replicate 1, z-score of dpERK with insulin 0.04.
CG9759 (GeneID 41661) [DRSC16558] gave replicate 1, z-score of dpERK with insulin 1.18.
Against CG34296 (GeneID 5740662) [DRSC13961], the values are replicate 1, z-score of dpERK with insulin -0.14.
Knock-down of Hs3st-B (GeneID 32918) [DRSC20067] resulted in: replicate 1, z-score of dpERK with insulin -0.28.
With knock-down of CG31897 (GeneID 319011) [DRSC01020] the results were replicate 1, z-score of dpERK with insulin -0.43.
Knock-down of mthl5 (GeneID 41438) [DRSC16155] resulted in: replicate 1, z-score of dpERK with insulin 0.94.
Silencing of CG33303 (GeneID 2768916) [DRSC02848] came out at: replicate 1, z-score of dpERK with insulin 0.07.
For CG6066 (GeneID 43267) [DRSC15959], the entry reads replicate 1, z-score of dpERK with insulin 1.83.
For CG6066 (GeneID 43267) [DRSC22228], the values are replicate 1, z-score of dpERK with insulin 0.26.
CG12540 (GeneID 32393) [DRSC19471] showed replicate 1, z-score of dpERK with insulin 0.34.
CG15461 (GeneID 50122) [DRSC20532] scored replicate 1, z-score of dpERK with insulin 0.31.
Against Fbl6 (GeneID 36201) [DRSC06335] the deposit lists replicate 1, z-score of dpERK with insulin 0.63.
CG15414 (GeneID 33570) [DRSC00429] showed replicate 1, z-score of dpERK with insulin 0.84.
After knock-down of CG15414 (GeneID 33570) [DRSC22353], the screen gave replicate 1, z-score of dpERK with insulin 0.36.
Against Scgalpha (GeneID 34135) [DRSC03076] the deposit lists replicate 1, z-score of dpERK with insulin 0.05.
Knock-down of squ (GeneID 2768920) [DRSC01549] gave: replicate 1, z-score of dpERK with insulin 0.75.
After knock-down of CG31974 (GeneID 33174) [DRSC00522] the results were replicate 1, z-score of dpERK with insulin 0.22.
Knock-down of Dso1 (GeneID 50126) [DRSC21815] gave: replicate 1, z-score of dpERK with insulin -2.17.
Silencing of Roc2 (GeneID 36246) [DRSC07313] resulted in: replicate 1, z-score of dpERK with insulin 0.91.
For CG12236 (GeneID 31523) [DRSC17830], the entry reads replicate 1, z-score of dpERK with insulin -5.89.
For CG12236 (GeneID 31523) [DRSC17831], the values are replicate 1, z-score of dpERK with insulin -0.36.
Against CG9143 (GeneID 37296) [DRSC07338] the deposit lists replicate 1, z-score of dpERK with insulin 0.96.
Silencing of Prtl99C (GeneID 43526) [DRSC15049] came out at: replicate 1, z-score of dpERK with insulin 0.5.
With knock-down of Mst57Da (GeneID 47954) [DRSC16744], the screen gave replicate 1, z-score of dpERK with insulin 0.68.
Srp9 (GeneID 38883) [DRSC10973] gave replicate 1, z-score of dpERK with insulin -0.91.
Silencing of Pym (GeneID 37780) [DRSC22492] came out at: replicate 1, z-score of dpERK with insulin 0.39.
Depletion of Spred (GeneID 36643) [DRSC05976] gave: replicate 1, z-score of dpERK with insulin 1.25.
Depletion of Gen (GeneID 38594) [DRSC09679] gave: replicate 1, z-score of dpERK with insulin -0.23.

As entered above:
Result for CG15461 (GeneID 50122) [DRSC20532] in “replicate 1, z-score of dpERK with insulin”: 0.31
Dso1 (GeneID 50126) [DRSC21815], replicate 1, z-score of dpERK with insulin: -2.17
